{"sequences": {"note": "Amino acid sequences for entries named in this document (tags omitted). A change or cut given only in a name is not applied to a line headed by its entry. Residues count along the entry.", "UniProt P63073, 2-217": "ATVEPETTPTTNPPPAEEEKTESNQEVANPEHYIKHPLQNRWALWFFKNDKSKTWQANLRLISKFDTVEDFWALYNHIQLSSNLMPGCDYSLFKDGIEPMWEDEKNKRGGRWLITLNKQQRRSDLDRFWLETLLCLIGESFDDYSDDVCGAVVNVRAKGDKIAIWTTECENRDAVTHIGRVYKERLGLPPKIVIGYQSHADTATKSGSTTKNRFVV", "UniProt P06730, 2-217": "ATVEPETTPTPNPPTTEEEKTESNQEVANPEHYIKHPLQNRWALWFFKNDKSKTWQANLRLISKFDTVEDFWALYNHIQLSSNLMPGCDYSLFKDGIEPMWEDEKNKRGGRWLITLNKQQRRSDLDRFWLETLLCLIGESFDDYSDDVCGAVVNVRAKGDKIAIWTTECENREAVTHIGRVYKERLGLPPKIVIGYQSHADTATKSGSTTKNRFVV"}, "source": "patent US20140199692", "key": {"[1]": {"biological_target": "eIF4E (endogenous, mouse nuclear extract) (Mus musculus) (UniProt P63073)", "assay": "pull-down", "conditions": "nuclear IP from transfected NIH3T3; protein in an extract"}, "[2]": {"biological_target": "eIF4E (endogenous, in nuclear lysate) (UniProt P06730)", "assay": "competition with a labelled probe", "conditions": "cold oligo competes for complex in nuclear lysate; eIF4E-dependent complex, possibly indirect; protein in an extract; variant of LacZ-p4E-SE transcript (Pim-1 4E-SE)"}, "[3]": {"biological_target": "eIF4E (Homo sapiens) (UniProt P06730)", "assay": "EMSA", "conditions": "5' m7G cap; partial shift; NET-2 buffer, 3 mM MgCl2, RT; purified recombinant protein; protein details: untagged (h4E); label: 3' 32P-pCp"}, "[4]": {"biological_target": "eIF4E (Mus musculus) (UniProt P63073)", "assay": "EMSA", "conditions": "5' m7G cap; partial shift; NET-2 buffer, 3 mM MgCl2, tRNA, heparin, RT; purified recombinant protein; protein details: 6 kD solubility tag (m4E); label: 3' 32P-pCp"}, "[5]": {"biological_target": "eIF4E (endogenous, in nuclear lysate) (UniProt P06730)", "assay": "EMSA", "conditions": "5' m7G cap; high MW complex; lost on eIF4E depletion, supershifted by anti-eIF4E; protein in an extract; label: 3' 32P-pCp"}}, "note": "The exact form of at least one protein or probe is not confirmed. For some assays here: Where cells or extracts were used, other partners may take part.", "data": [{"sequence": "UUUUUAAACACUAAAAUAUAUAAUUUAUAGUUAAGGCUAAAAAGUAUAUUUAUUGCAGAGGAUGUUCAUAAGGCCAGUAUGAUUUAUAAAUG [LacZ-3'UTR4 chimeric mRNA (cyclin D1 4E-SE)]", "values": [{"measurement": "binding result", "setting": "[1]", "result": "binds"}]}, {"sequence": "GGGACUCAGGCGGGACAGUGCUGCAGCUCCCUGGCUUCUGUGGGCCCC [p4E-SE ribo-oligonucleotide competitor]", "values": [{"measurement": "binding result", "setting": "[2]", "result": "binds"}]}, {"sequence": "GGGACUCAGGCGGGACAGUGCUGCAGCUCCCUGGCUUCUGUGGGCCCC [LacZ-p4E-SE transcript (Pim-1 4E-SE)]", "values": [{"measurement": "binding result", "setting": "[3]", "result": "binds"}, {"measurement": "binding result", "setting": "[4]", "result": "binds"}, {"measurement": "binding result", "setting": "[5]", "result": "binds"}]}]}
